Test results published in US9526785B2, “Pharmaceuticals for oral delivery” (Enteris BioPharma, Inc., priority 2013, dated 2016).
Where “and” joins values, the source holds several entries; their conditions need not be identical. Equal values may be shown once. The source gives many values for each of these; only a part stands here.

Test: Tigecycline plasma PK and % F after PO enteric-coated capsule in dogs
Assay type: in vivo, Beagle dogs
Conditions: individual dogs
Protocol: Adult beagle dogs weighing approximately 9 to 15 kg were used in the study. […] Room temperature was set to be maintained between approximately 20±5° C. Relative humidity was monitored but not controlled.
TEKLAD™ Certified Canine Diet was provided once daily in amounts (˜400 grams) appropriate for the size and age of the animals. Tap water was available ad libitum via automatic watering device or water bowls.
Oral dosing of enteric-coated capsules was accomplished by administering them to the back of the dog's mouth, followed by a chase of 5 mL water to ensure swallowing.
Water was provided ad libitum. […] Subsequently, each group of animals was dosed based on the protocol, i.e. either IV, or PO by capsule.
Minocycline (VWR international) was used as an internal standard. Sample processing/clean-up of plasma samples was carried out offline by protein precipitation with acidified acetonitrile using 0.5% trifluoroacetic acid (TFA).
The HPLC system consisted of Shimadzu SIL-HTc HPLC system equipped with dual Shimadzu LC-10ADvp isopumps, a Shimadzu CTO-10ASvp column temperature controller and a Shimadzu SPD-10Avp variable wavelength detector. […] Mobile phase A consisted of 23 mM phosphate buffer pH 2.5 with 4 mM 1-octanesulfonic acid, while mobile phase B consisting of 90% acetonitrile, 10% water, with 2 mM 1-octanesulfonic acid. […] The total runtime was 18 minutes per sample. The mobile phase flow rate was 1.2 mL/min. Detection was performed using the SPD-10Avp variable wavelength detector set at 350 nm, with a sensitivity of 0.001 aufs.
The samples were then centrifuged under refrigeration at 13 k rpm for 5 minutes. The supernatant was taken and the liquid removed to dryness under nitrogen in a turbovap. The dried extract was reconstituted in 60 μL of mobile phase A and the suspension was further centrifuged at 5 k rpm for 5 minutes to pellet any insoluble matter. The resulting supernatant was then injected onto the LC.
The unknown concentration in dog plasma samples was determined by interpolation of the peak area ratios of analyte:internal standard versus the ratio of their nominal concentrations into the regression line obtained from calibration standards spiked in pooled dog plasma. No regression weighting was used for the calculations. […] The calibration curve covered the range of 0.05 μg/mL to 5 μg/mL. […]
The capsules were enterically coated using a standard preclinical protocol to 10% weight gain. Two studies were conducted.

For `CN(C)c1cc(NC(=O)CNC(C)(C)C)c(O)c2c1C[C@H]1C[C@H]3[C@H](N(C)C)C(O)=C(C(N)=O)C(=O)[C@@]3(O)C(O)=C1C2=O` [Tigecycline], the “Tigecycline Plasma Concentration” value (0 min, PO 15 mg enteric-coated capsule with 500 mg CA and 100 mg LLC, SC424) was 0.00 ng/mL, the “Tigecycline Plasma Concentration” value (0.0 hr, PO 30 mg unformulated enteric-coated capsule, SC430) was 0.00 ng/mL and the “Tigecycline Plasma Concentration” value (15 min, PO 15 mg enteric-coated capsule with 500 mg CA and 100 mg LLC, SC424) was 0.00 ng/mL. The “Tigecycline Plasma Concentration” value (0.3 hr, PO 30 mg unformulated enteric-coated capsule, SC430) was 0.00 ng/mL, the “Tigecycline Plasma Concentration” value (30 min, PO 15 mg enteric-coated capsule with 500 mg CA and 100 mg LLC, SC424) was 0.00 ng/mL and the “Tigecycline Plasma Concentration” value (0.7 hr, PO 30 mg unformulated enteric-coated capsule, SC430) was 0.00 ng/mL. The “Tigecycline Plasma Concentration” value (45 min, PO 15 mg enteric-coated capsule with 500 mg CA and 100 mg LLC, SC424) was 0.00 ng/mL (7×) and 67.62 ng/mL, the “Tigecycline Plasma Concentration” value (60 min, PO 15 mg enteric-coated capsule with 500 mg CA and 100 mg LLC, SC424) was 0.00 ng/mL (6×) and 102.56 ng/mL and 46.91 ng/mL and the “Tigecycline Plasma Concentration” value (1.0 hr, PO 30 mg unformulated enteric-coated capsule, SC430) was 0.00 ng/mL. The “Tigecycline Plasma Concentration” value (75 min, PO 15 mg enteric-coated capsule with 500 mg CA and 100 mg LLC, SC424) was 67.41 ng/mL and 0.00 ng/mL (3×) and 124.71 ng/mL and 44.94 ng/mL and 97.41 ng/mL and 34.28 ng/mL, the “Tigecycline Plasma Concentration” value (90 min, PO 15 mg enteric-coated capsule with 500 mg CA and 100 mg LLC, SC424) was 72.72 ng/mL and 0.00 ng/mL (3×) and 131.62 ng/mL and 58.36 ng/mL and 74.02 ng/mL and 93.83 ng/mL and the “Tigecycline Plasma Concentration” value (120 min, PO 15 mg enteric-coated capsule with 500 mg CA and 100 mg LLC, SC424) was 68.67 ng/mL and 0.00 ng/mL and 102.31 ng/mL and 83.74 ng/mL and 15.40 ng/mL and 42.92 ng/mL and 47.02 ng/mL and 51.68 ng/mL. The “Tigecycline Plasma Concentration” value (2.0 hr, PO 30 mg unformulated enteric-coated capsule, SC430) was 0.00 ng/mL, the “Tigecycline Plasma Concentration” value (150 min, PO 15 mg enteric-coated capsule with 500 mg CA and 100 mg LLC, SC424) was 40.67 ng/mL and 0.00 ng/mL and 107.71 ng/mL and 78.99 ng/mL and 12.76 ng/mL and 25.44 ng/mL and 35.51 ng/mL and 32.23 ng/mL and the “Tigecycline Plasma Concentration” value (180 min, PO 15 mg enteric-coated capsule with 500 mg CA and 100 mg LLC, SC424) was 41.02 ng/mL and 33.29 ng/mL and 82.31 ng/mL and 73.35 ng/mL and 10.38 ng/mL and 17.06 ng/mL and 21.14 ng/mL and 20.67 ng/mL. For the same compound, the “Tigecycline Plasma Concentration” value (180 min, PO 15 mg unformulated enteric-coated capsule, SC424) was 0.00 ng/mL, the “Tigecycline Plasma Concentration” value (3.0 hr, PO 30 mg unformulated enteric-coated capsule, SC430) was 0.00 ng/mL and the “Tigecycline Plasma Concentration” value (210 min, PO 15 mg enteric-coated capsule with 500 mg CA and 100 mg LLC, SC424) was 34.32 ng/mL and 39.92 ng/mL and 80.92 ng/mL and 73.72 ng/mL and 3.16 ng/mL and 18.51 ng/mL and 19.45 ng/mL and 20.23 ng/mL. The “Tigecycline Plasma Concentration” value (210 min, PO 15 mg unformulated enteric-coated capsule, SC424) was 0.00 ng/mL, the “Tigecycline Plasma Concentration” value (240 min, PO 15 mg enteric-coated capsule with 500 mg CA and 100 mg LLC, SC424) was 35.68 ng/mL and 25.96 ng/mL and 98.76 ng/mL and 72.67 ng/mL and 7.56 ng/mL and 4.89 ng/mL and 16.45 ng/mL and 19.58 ng/mL and the “Tigecycline Plasma Concentration” value (240 min, PO 15 mg unformulated enteric-coated capsule, SC424) was 0.00 ng/mL. The “Tigecycline Plasma Concentration” value (4.0 hr, PO 30 mg unformulated enteric-coated capsule, SC430) was 0.00 ng/mL, the “Tigecycline Plasma Concentration” value (5.0 hr, PO 30 mg unformulated enteric-coated capsule, SC430) was 0.00 ng/mL and the “Tigecycline Plasma Concentration” value (6.0 hr, PO 30 mg unformulated enteric-coated capsule, SC430) was 0.00 ng/mL. The “Tigecycline Plasma Concentration” value (8.0 hr, PO 30 mg unformulated enteric-coated capsule, SC430) was 0.00 ng/mL, the “Tigecycline Plasma Concentration” value (10.0 hr, PO 30 mg unformulated enteric-coated capsule, SC430) was 0.00 ng/mL and the “Tigecycline Plasma Concentration” value (Time (min) 0.0, PO 30 mg enteric-coated capsule with 500 mg CA and 100 mg LLC, SC430) was 0.00 ng/mL. The “Tigecycline Plasma Concentration” value (Time (min) 0.0, PO 45 mg enteric-coated capsule with 500 mg CA and 100 mg LLC, SC430) was 0.00 ng/mL, the “Tigecycline Plasma Concentration” value (Time (min) 0.3, PO 30 mg enteric-coated capsule with 500 mg CA and 100 mg LLC, SC430) was 0.00 ng/mL and the “Tigecycline Plasma Concentration” value (Time (min) 0.3, PO 45 mg enteric-coated capsule with 500 mg CA and 100 mg LLC, SC430) was 0.00 ng/mL. For the same compound, the “Tigecycline Plasma Concentration” value (Time (min) 0.7, PO 30 mg enteric-coated capsule with 500 mg CA and 100 mg LLC, SC430) was 0.00 ng/mL (3×) and 95.94 ng/mL and 36.01 ng/mL, the “Tigecycline Plasma Concentration” value (Time (min) 0.7, PO 45 mg enteric-coated capsule with 500 mg CA and 100 mg LLC, SC430) was 0.00 ng/mL and the “Tigecycline Plasma Concentration” value (Time (min) 1.0, PO 30 mg enteric-coated capsule with 500 mg CA and 100 mg LLC, SC430) was 0.00 ng/mL (3×) and 154.19 ng/mL and 90.62 ng/mL.
